# No constants are given. Whether binding was seen depends on the method and setting. Some entries that bind do so weakly or less than the wild type.
# Protein sequences, listed by entry. Tags and fused reporters are not part of them.
# UniProt P17931: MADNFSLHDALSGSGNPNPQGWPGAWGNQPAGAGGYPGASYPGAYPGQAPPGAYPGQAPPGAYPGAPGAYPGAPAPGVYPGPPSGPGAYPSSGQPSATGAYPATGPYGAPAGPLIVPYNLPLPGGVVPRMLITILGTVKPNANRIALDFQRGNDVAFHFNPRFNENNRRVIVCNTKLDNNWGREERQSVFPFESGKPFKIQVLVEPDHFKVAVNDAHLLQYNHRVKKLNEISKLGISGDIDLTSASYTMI
# UniProt P09382: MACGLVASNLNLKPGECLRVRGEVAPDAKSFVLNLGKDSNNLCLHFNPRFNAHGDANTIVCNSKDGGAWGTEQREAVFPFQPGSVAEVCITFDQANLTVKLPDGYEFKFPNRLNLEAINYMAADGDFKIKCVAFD
# UniProt P56470: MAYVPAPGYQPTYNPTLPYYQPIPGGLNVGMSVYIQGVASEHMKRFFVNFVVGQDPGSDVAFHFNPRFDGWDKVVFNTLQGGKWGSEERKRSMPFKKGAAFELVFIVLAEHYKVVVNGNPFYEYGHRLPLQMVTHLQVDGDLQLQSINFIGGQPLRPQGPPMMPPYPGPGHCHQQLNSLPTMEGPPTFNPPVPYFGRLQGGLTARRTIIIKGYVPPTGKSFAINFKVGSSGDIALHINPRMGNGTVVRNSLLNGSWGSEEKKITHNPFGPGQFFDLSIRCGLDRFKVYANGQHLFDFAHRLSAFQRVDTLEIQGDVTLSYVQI
# UniProt O00214: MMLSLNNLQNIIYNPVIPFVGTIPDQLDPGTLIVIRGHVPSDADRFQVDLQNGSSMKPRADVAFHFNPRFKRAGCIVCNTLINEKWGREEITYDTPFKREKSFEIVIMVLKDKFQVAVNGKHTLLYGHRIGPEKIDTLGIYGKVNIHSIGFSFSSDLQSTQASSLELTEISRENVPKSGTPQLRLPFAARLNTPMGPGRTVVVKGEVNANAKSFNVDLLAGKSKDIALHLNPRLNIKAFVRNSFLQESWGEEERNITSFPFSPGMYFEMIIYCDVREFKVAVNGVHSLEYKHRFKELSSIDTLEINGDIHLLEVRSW
# Key:
# asialofetuin [1] = biological target: T1, asialofetuin (UniProt P12763); experiment: ELISA; direct binding of galectin constructs to ASF (data in Table S8); both purified
# T1 sequence (chain, glycoprotein without sialic acids (asialofetuin), as the name says): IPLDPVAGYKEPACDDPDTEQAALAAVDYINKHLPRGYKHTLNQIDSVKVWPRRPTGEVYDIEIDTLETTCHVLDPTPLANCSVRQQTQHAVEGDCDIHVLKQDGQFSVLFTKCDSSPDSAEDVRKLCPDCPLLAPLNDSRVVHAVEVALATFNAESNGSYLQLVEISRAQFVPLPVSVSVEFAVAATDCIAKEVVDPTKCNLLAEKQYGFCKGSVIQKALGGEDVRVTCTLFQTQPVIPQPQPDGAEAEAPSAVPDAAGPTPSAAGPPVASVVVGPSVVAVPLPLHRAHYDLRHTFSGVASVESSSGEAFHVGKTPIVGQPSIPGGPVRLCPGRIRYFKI
# asialofetuin [2] = biological target: T1, asialofetuin; experiment: ELISA; competitive: ASF (0.1 μM in PBS) immobilised on microtiter plates; serial dilutions of inhibitor in EPBS (PBS with 2 mM EDTA) incubated 2 h with a constant galectin concentration ([…] Gal-1, Gal-3, Gal-4; 0.5 μM Gal-8, Gal-9); residual galectin on ASF detected with anti-His-tag-HRP; both purified
# Asialofetuin [3] = biological target: T2, Asialofetuin (UniProt P12763); experiment: ELISA; competitive ELISA: ASF (0.1 µM in PBS) immobilised, serial dilutions of the neo-glycoprotein in EPBS incubated with […] Gal-1 or Gal-3 for 2 h; galectin left on ASF detected with anti-His-tag-HRP; both purified
# T2 sequence (chain, asialo form (glycans without sialic acid), by its name only): T1 sequence (chain, glycoprotein without sialic acids (asialofetuin), as the name says)
Substance,binding (asialofetuin [1]),binding (asialofetuin [2]),binding (Asialofetuin [3])
"full-length recombinant human galectin-9, N-terminal His-tagged (from UniProt O00182 1-355)",binds,binds,–
"full-length recombinant human galectin-3, N-terminal His-tagged (from UniProt P17931 1-250)",binds,binds,–
"full-length recombinant human galectin-1, N-terminal His-tagged (from UniProt P09382 1-135)",binds,binds,–
"full-length recombinant human galectin-4, N-terminal His-tagged (from UniProt P56470 1-323)",binds,binds,–
"full-length recombinant human galectin-8, N-terminal His-tagged (from UniProt O00214 1-317)",binds,binds,–
His-tagged galectin-3 (from UniProt P17931 1-250),–,–,binds
